Assay: general procedure: peptide synthesis; HATU/DIPEA (cyclisation of Cyclosporin A precursor); iodine (Desmopressin)
Details: cyclisation step, 205 nm

Cyclosporin A
crude HPLC purity (run 1): 73.12% | crude HPLC purity (run 2): 85.28% | crude HPLC purity (run 3): 87.14% | crude HPLC purity (run 4): 86.609%

— patent US11807664 (dated 2023)
